Patent US20230071321A1 (VIB VZW, published 2023)
These are yes or no findings as the source states them, for the method shown. Binding calls can cover weak binding; strength is not graded here. For some assays here: Binding seen in cells or lysates may run through a third protein.

Columns and labels:
[1] = target: hCXCR4Rho1D4 (full-length human CXCR4 receptor with C-terminal Rho1D4 tag) (human); test: retention of the His-tagged Nanobody in P. pastoris membrane fractions with or without hCXCR4 co-expression, anti-His immunoblot
[2] = target: hCXCR4Rho1D4 (full-length human CXCR4 receptor with C-terminal Rho1D4 tag) (human); test: co-purification of the receptor on a Ni2+ affinity column through the hexaHis-tagged Nanobody, anti-Rho1D4 immunoblot

| Binder | binding [1] | binding [2] |
| --- | --- | --- |
| Nanobody CA4140 (VHH) VHH: QVQLQESGGGLVQPGGSLRLSCAASGSIFSINAMGWYRQAPGKQRELVAAITSGGSTNYADSVKGRFTISRDNAENTVYLQMNNLKPEDTAVYSCNAEGTSGSSRYRRRYEYWGKGTQVTVSS | binds |  |
| Nanobody CA4142 (VHH) VHH: QVQLQESGGGLVRTGGSLRLSCAGSGSFFSINPMGWYRQAPGQQRELVATITGSGSTNYADSVKGRFTISRDNAKNTLYLQMNSLKPEDTAVYYCNAGYFDRIGRRYDRWGQGTQVTVSS | binds | binds |

More lines, now with the values ahead:

| binding [1] | binding [2] | Binder |
| --- | --- | --- |
| binds |  | Nanobody CA4143 (VHH) VHH: QVQLQESGGGLVQPGGSLRLSCAASGFTFSSYAMSWVRQAPGKGLEWVSTINSGGRSANYADSVKGRLTISRDNAKNTLHLQMNSLKPEDTALYYCARPRSVSRNYVPLGYDYLGQGTQVTVSS |
| binds |  | Nanobody CA4500 (VHH) VHH: QVQLQESGGGLVQAGGSLRLSCAASGSTSGIIAMGWYRQAPGKQRELVARISSGSSTNYADSVKGRFTVSRDNAKNTVYLQMNSLKPEDTAVYYCNAVRRGYRNDYNSWGQGTQVTVSS |
